In PMC4521181:
These are yes or no findings as the source states them, for the method shown. In cells and extracts the contact can be indirect. Some binding calls cover weakened binding; strength is not graded here. Tags and fused reporters may be left off the sequences shown. One block for each molecule: values may come before it.

Sequences of proteins named here, by UniProt entry; tags and fusion partners are left off. A change or cut given only in a name is not applied to a line headed by its entry.
UniProt P50750: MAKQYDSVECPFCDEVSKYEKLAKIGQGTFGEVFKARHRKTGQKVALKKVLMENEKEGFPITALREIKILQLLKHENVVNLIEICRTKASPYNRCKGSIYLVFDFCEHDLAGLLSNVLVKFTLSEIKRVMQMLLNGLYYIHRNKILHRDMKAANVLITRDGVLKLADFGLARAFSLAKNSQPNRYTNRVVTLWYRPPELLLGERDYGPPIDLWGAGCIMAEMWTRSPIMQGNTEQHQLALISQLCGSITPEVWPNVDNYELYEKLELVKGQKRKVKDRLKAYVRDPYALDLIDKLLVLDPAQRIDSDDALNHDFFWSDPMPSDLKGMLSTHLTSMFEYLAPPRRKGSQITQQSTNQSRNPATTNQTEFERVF

Key:
AFF3-Flag (human) = biological target: T1, AFF3-Flag (human) (UniProt P51826); assay: co-IP; nuclear extract (150 mM NaCl, 1% NP40) of H295R cells overexpressing AFF3-Flag or Ctr vector; anti-Flag M2 affinity gel overnight at 4 °C, three washes, elution with 3X Flag peptide; western blot
T1 sequence: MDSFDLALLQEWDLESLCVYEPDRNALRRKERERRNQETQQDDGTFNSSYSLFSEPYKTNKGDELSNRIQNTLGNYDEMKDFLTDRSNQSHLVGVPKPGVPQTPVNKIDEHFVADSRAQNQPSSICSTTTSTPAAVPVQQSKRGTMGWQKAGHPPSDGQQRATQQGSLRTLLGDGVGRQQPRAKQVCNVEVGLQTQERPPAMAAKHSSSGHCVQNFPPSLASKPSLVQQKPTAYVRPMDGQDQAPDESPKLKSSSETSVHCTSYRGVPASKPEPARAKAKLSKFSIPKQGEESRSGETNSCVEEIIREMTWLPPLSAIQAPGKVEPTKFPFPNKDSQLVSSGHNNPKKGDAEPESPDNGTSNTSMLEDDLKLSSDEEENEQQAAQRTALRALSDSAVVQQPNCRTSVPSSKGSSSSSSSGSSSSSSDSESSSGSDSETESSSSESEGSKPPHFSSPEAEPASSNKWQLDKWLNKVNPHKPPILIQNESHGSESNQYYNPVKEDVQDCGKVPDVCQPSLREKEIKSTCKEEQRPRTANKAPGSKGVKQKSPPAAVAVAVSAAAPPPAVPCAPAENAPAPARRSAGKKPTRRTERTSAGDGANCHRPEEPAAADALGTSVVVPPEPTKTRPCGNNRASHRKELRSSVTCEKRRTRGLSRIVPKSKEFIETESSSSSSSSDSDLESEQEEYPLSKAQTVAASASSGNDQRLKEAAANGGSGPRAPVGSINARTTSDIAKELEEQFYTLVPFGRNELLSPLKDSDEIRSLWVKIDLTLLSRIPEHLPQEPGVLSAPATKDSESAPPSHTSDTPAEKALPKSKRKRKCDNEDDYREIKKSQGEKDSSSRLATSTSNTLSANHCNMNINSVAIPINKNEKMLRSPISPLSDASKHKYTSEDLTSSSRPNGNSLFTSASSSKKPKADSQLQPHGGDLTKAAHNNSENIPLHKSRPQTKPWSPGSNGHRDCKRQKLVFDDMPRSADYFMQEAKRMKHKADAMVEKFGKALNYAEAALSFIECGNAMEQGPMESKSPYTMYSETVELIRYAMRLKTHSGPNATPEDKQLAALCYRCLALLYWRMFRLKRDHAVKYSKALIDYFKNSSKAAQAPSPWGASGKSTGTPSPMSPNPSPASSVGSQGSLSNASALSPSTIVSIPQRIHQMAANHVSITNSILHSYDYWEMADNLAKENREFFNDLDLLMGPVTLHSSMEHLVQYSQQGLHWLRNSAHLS

[1] = biological target: CDK9 (human (endogenous in H295R)) (UniProt P50750); assay: co-IP; lysate of H295R cells overexpressing AFF3-Flag or silenced for AFF3 (siAFF3); anti-CDK9 antibodies and protein A magnetic sepharose beads overnight at 4 °C, three washes (150 mM NaCl, 1% NP40); western blot

binding (AFF3-Flag (human)): binds
Molecule: CDK9 (from UniProt P50750 1-372)

binding [1]: binds
B1: AFF3-Flag (protein, UniProt P51826 1-1226)
chain: T1 sequence

binding [1]: binds
B2: AFF3 (endogenous) (protein, UniProt P51826-1 1-1226)
chain: T1 sequence
